1 sequence from PMC7807036 can be followed below.

The test system of this series is thrombin (human). Description: binding assay. Particulars: exosite II; Clotting: 20 mM Tris, 150 mM NaCl, 5 mM KCl, 1 mM MgCl2, 1 mM CaCl2, pH 7.4, 12 nM thrombin, 25 C, 5 min; commercial protein; folded or branched ….

pKd: −log10 of the molar value. Construct, isoform or probe ends are uncertain for at least one entry.

With TAGTCCGTGGTAGGGCAGGTTGGGGTGACT [HD22], the negative-log Kd (pKd) was 9.30.

What is called pKd is the negative decadic logarithm of the Kd, by convention in mol/L. Read a low pKd as a large Kd.
